Percent effect of library compounds

Sequences of proteins named here, by UniProt entry; tags and fusion partners are left off.
UniProt P9WNZ1, whole entry: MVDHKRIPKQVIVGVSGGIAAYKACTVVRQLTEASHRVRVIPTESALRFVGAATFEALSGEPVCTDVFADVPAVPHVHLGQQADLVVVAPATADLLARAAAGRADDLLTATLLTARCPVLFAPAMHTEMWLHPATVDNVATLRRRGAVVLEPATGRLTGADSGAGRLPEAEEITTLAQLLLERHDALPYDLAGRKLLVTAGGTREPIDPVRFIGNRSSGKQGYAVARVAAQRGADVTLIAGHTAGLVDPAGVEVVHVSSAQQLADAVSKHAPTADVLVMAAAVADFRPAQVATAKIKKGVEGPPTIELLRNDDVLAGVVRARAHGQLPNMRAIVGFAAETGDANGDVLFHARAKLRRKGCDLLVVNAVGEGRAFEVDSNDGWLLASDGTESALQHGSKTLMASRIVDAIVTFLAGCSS
UniProt P9WFT3, whole entry: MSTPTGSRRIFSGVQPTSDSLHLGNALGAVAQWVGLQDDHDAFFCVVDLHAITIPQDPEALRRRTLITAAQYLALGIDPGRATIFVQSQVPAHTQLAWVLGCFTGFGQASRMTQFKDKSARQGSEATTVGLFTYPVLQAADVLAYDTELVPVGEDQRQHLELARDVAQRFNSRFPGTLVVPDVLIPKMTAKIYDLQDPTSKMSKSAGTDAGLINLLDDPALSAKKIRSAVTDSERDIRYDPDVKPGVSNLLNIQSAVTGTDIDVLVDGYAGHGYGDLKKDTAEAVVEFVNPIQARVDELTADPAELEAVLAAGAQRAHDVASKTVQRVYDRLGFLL

Source: ChEMBL document CHEMBL3988442, “University of Dundee, Small-Polar-MMV Screening Library” (2021).

CoaBC: 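Coenzyme A biosynthesis protein CoaBC, Mycobacterium tuberculosis (UniProt P9WNZ1). Enzyme assay of CoaBC with a phosphate dye (Biomol Green) read at 650 nm. Tested at 30 µM. Direction is inferred from only a few compounds that gave an IC50; most scored high, so higher reads as stronger inhibition. Most strong results did not repeat in a second test. Size under these conditions: about 67,000 compounds, about 40 of them at 50% or above in at least one test.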
MtTrpRS: 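Tryptophan-tRNA ligase, Mycobacterium tuberculosis (UniProt P9WFT3). Enzyme assay of tryptophanyl-tRNA synthetase; the read-out is not stated. Tested at 10 µM. Direction is not recorded; retested compounds ran higher, which suggests that high means inhibition. About 65,000 compounds were tested under these conditions; 0.098% (about 64) showed 50% or more at least once.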

Values are the deposited “Percent Effect”, in %. How 0% and 100% were set is not recorded. Most values in the screen are low, and negative values occur. The compounds are a random part of those screened.

- CC(c1nc(C(C)(C)C)no1)S(=O)(=O)CC(=O)N1CCCC1 (stereo unspecified) | CoaBC: 1.394%; MtTrpRS: 0.7766%
- Cc1nnc2n1CC(CNc1cnc3ccccc3n1)CC2 (stereo unspecified) | CoaBC: -0.7444%; MtTrpRS: 0.06345%
- CC1(NC(=O)CNC(=O)C(C)(C)C)CCc2ccccc2C1 (stereo unspecified) | CoaBC: 6.164%; MtTrpRS: -2.585%
- Cc1ccc(-c2ncc(C(=O)N3CCCN4CCC[C@H]4C3)c(O)n2)cc1 | CoaBC: 0.122%; MtTrpRS: 0.3974%
- Cc1csc(NC(=O)NCCCN2CCC(C(N)=O)CC2)n1 | CoaBC: 5.144%; MtTrpRS: -3.979%
- Cc1ccccc1C(=O)N1C[C@@H]2COC[C@]2(COCc2cccnc2)C1 | CoaBC: 1.053%; MtTrpRS: -2.789%
- CC(C)c1nccn1C1CCCN(C(=O)CCNS(C)(=O)=O)C1 (stereo unspecified) | CoaBC: -1.434%; MtTrpRS: -3.83%
- COC(C(=O)N1CCN(c2cccc(Cl)c2)C(=O)C1)c1ccccc1 (stereo unspecified) | CoaBC: -0.2132%; MtTrpRS: -3.173%
- CCc1cc(NCC(O)CN2CCCC2)ncn1 (stereo unspecified) | CoaBC: 1.794%; MtTrpRS: 2.318%
- CCc1c(O)nc(SCC(=O)Nc2ccccc2)n(C(C)CC)c1=O (stereo unspecified) | CoaBC: 0.6046%; MtTrpRS: -2.938%
- Cc1nc(CN2CC[C@H]3[C@H]2CCN3c2ncccn2)cs1 | CoaBC: 0.2114%; MtTrpRS: 2.185%
- O=S(=O)(C1CC1)N1CC[C@@H](OCC2CC2)[C@@H]1Cc1ccncc1 | CoaBC: -6.721%; MtTrpRS: -1.984%
- CCS(=O)(=O)CCNC(=O)C1(c2cccc(Cl)c2)CC1 | CoaBC: 6.659%; MtTrpRS: 35.98%
- Cc1cc(CCC(N)=O)cc(C2CCCN2Cc2ccnn2C)n1 (stereo unspecified) | CoaBC: 9.789%
- Cc1cc(C)n(CC2CN(c3ncnc4[nH]ccc34)CCO2)n1 (stereo unspecified) | CoaBC: -4.453%; MtTrpRS: -2.684%
- CCN1CCN(c2ccc(F)cc2C(C)NCc2nc(C)no2)CC1 (stereo unspecified) | CoaBC: -36.91%; MtTrpRS: -2.023%
- CCNc1ccnc(NCC2(N(C)C)CCOCC2)n1 | CoaBC: -7.582%; MtTrpRS: -4.693%
- CCOc1ncccc1CNC(=O)N1CCC(n2cncn2)CC1 | CoaBC: -4.348%; MtTrpRS: -2.508%
- O=C(CN1CCc2sccc2C1)Nc1nccs1 | CoaBC: 3.435%; MtTrpRS: 0%
- COc1ccc(N2CCN(Cc3noc(CC(C)C)n3)C(C)C2=O)cc1 (stereo unspecified) | CoaBC: 7.403%; MtTrpRS: 4.744%
- Cn1nc2c(cc1=O)CN(CC(=O)Nc1cc(C(C)(C)C)no1)CC2 | CoaBC: 16.77%; MtTrpRS: 17.08%
- Cc1cc2n(n1)CC(CNC1CCN(c3ccc(F)cc3)CC1)CN2 (stereo unspecified) | CoaBC: -40.53%; MtTrpRS: 1.844%
- O=C(C1CC=CC1)N1CC[C@H]2[C@@H]1CCC(=O)N2c1ccccc1 | CoaBC: -14.87%; MtTrpRS: -3.968%
- Cc1ncc2c(n1)CN(C(C(N)=O)c1ccc(F)cc1)CC2 (stereo unspecified) | CoaBC: 2.746%; MtTrpRS: -3.112%
- CCn1cncc1C1CC(=O)Nc2c1c(C)nn2C (stereo unspecified) | CoaBC: -0.8264%; MtTrpRS: 0.9726%
- COc1ncnc2c1CCN(CC1CCOC1)CC2 (stereo unspecified) | CoaBC: 3.09%; MtTrpRS: -2.957%
- CNc1cncc(C2CCCN2S(=O)(=O)c2cccc(F)c2)n1 (stereo unspecified) | CoaBC: 1.46%; MtTrpRS: -2.957%
- CCOCCN1CCN(Cc2nc(CC(C)C)no2)CC1 | CoaBC: 5.371%; MtTrpRS: -4.576%
- COc1ccc(COCC(=O)N2CCN(CC(C)(C)O)CC2)cc1 | CoaBC: 6.21%; MtTrpRS: 2.197%
- Cc1c(C)n2c(SCC(=O)N3CCC(C)CC3)nnc2[nH]c1=O | CoaBC: 3.03%; MtTrpRS: -0.75%
- Cc1nnc2n1CCN(C(=O)c1cnc3c(cnn3CC(C)C)c1)C2 | CoaBC: -7.205%; MtTrpRS: 0.6606%
- CC(C)NC(=O)[C@@H]1CN(C)C[C@]12COc1ccc(F)cc1C2=O | CoaBC: -16.03%; MtTrpRS: -3.43%
- O=C1CCc2cc(C(=O)NCc3ccc(Cl)s3)ccc2N1 | CoaBC: -9.821%; MtTrpRS: -6.295%
- CCCc1noc(C2CCN(S(=O)(=O)c3cccs3)CC2)n1 | CoaBC: 0.1156%; MtTrpRS: 1.22%
- COc1ccccc1OC1(C(=O)O)CCN(c2nccnc2OC)CC1 | CoaBC: 1.951%; MtTrpRS: 0.9029%
- Cc1ccc(C)c(-n2ccc3nc(N4CCCC4)ncc3c2=O)c1 | CoaBC: 5.518%; MtTrpRS: -6.834%
- CNC(=O)c1cc2c(nc1NC(C)C)CCNCC2 | CoaBC: -7.993%; MtTrpRS: 2.008%
- Cc1cnn(C2(C(=O)O)CCN(c3ccncc3F)CC2)c1 | CoaBC: 9.13%; MtTrpRS: 0.4817%

For reference, 4 entries once more:

{"compound": "COc1ccc(N2CCN(Cc3noc(CC(C)C)n3)C(C)C2=O)cc1", "stereo": "stereo unspecified", "CoaBC": 7.403, "MtTrpRS": 4.744}
{"compound": "CCOCCN1CCN(Cc2nc(CC(C)C)no2)CC1", "CoaBC": 5.371, "MtTrpRS": -4.576}
{"compound": "Cc1c(C)n2c(SCC(=O)N3CCC(C)CC3)nnc2[nH]c1=O", "CoaBC": 3.03, "MtTrpRS": -0.75}
{"compound": "CCNc1ccnc(NCC2(N(C)C)CCOCC2)n1", "CoaBC": -7.582, "MtTrpRS": -4.693}